Source: patent US6207677A, “Piperidine derivatives having anxiolytic effect” (H. Lundbeck A/S, priority 1991, dated 2001)
At least one structure is not confirmed: it was looked up by name or label, or the drawing left a doubt.

Molecular target: sigma receptors
Assay: Inhibition of 3H-DTG binding to sigma receptors in rat brain in vitro
Settings: 2 nM 3H-DTG, rat brain without cerebellum, 25° C., 20 min
Description: INHIBITION OF 3H-DTG BINDING TO SIGMA RECEPTORS IN RAT BRAIN IN VITRO
By this method the inhibition by drugs of the binding of 2 nM ^3 H-DTG (1,3,di-o-tolyl guanidine) to sigma receptors in homogenates or membranes from rat brain without cerebellum is determined in vitro as modified from Weber et al. Proc. Natl. Acad. Sci. 1986, 83,8784.
Homogenate: Rats (150-250 g) are decapitated and the brains (without cerebellum) quickly removed and placed on ice, weighed and homogenized in 100 vol ice-cold (0° C.) 50 mM Tris-buffer (pH 7.7) in an ethanol rinsed glass/teflon homogenizer at 0° C. and kept on ice until use.
P2-membranes: Brains are homogenized in 10 vol 0.32 M sucrose in an ethanol rinsed glass/teflon homogenizer with 10 strokes up and down. The homogenate is centrifuged for 10 min at 900×gm at 4° C. The supernatant is decanted and centrifuged for 20 min at 50,000 gm at 4° C. The resulting pellet is resuspended in 10 vol ice-cold […] Tris-buffer (pH 7.7) and incubated for 30 min. at 37° C. The membrane suspension is then centrifuged for further 20 min. at 50,000 gm at 4° C. The pellet is resuspended in 50 vol. of ice-cold Tris-buffer and used immediately. […]
The binding reaction is stopped by filtration of the assay mixture at reduced pressure (750 mbar) followed by further 3 washes with 5 ml ice-cold Tris-buffer. […] The vials are counted in a Beckmann scintillation counter. […]

| Compound | IC50 [nM] |
| --- | --- |
| c1ccc2c(c1)COC1(CCN(CCCOC34CC5CC(CC(C5)C3)C4)CC1)C2 [Compound 2m, 1'-(3-Adamantyloxy-1-propyl)spiro[3H-2-benzopyran-3,4'-piperidine]] | 0.47 |
| Fc1ccc(C2CCN(CCCCc3nn(-c4ccc(F)cc4)c4ccc(C(F)(F)F)cc34)CC2)cc1 [Compound 17b, 4-Fluorophenyl-3-[4-(4-(4-fluorophenyl)-1-piperidinyl)-1-butyl]-5-trifluoromethylindazol] | 0.46 |
